This passage reports binding results from paper PMC6301718, “CDHR3 extracellular domains EC1-3 mediate rhinovirus C interaction with cells and as recombinant derivatives, are inhibitory to virus infection” (PLoS Pathogens, 2018).

Sequences of proteins named here, by UniProt entry; tags and fusion partners are left off. A change or cut given only in a name is not applied to a line headed by its entry. A line that says so, or that is headed by a name, gives the form on record, which may keep a tag or linker. Residues count along the entry.
rEC1 (CDHR3 residues 20–130) (Q6ZTQ4, residues 20-130): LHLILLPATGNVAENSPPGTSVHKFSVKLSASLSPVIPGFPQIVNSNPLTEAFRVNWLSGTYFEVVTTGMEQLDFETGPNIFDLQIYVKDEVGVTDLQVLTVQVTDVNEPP
rEC1 W76A (CDHR3 residues 20–130, W76A) (Q6ZTQ4, form named): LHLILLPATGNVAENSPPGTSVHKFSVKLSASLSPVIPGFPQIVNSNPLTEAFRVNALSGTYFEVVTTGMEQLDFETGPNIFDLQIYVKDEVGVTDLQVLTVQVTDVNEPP

In experiment [1] the target is rEC1 (CDHR3 residues 20–130) (human) (UniProt Q6ZTQ4). The experiment in a line: SEC; HiPrep 16/60 Sephacryl S200, refolded protein 0.5–1.5 mg, 1 mL/min, 20 mM Tris (pH 8.0), 137 mM NaCl, 2 mM CaCl2; both purified.
For experiment [2], the target named is rEC1 W76A (CDHR3 residues 20–130, W76A) (human) (UniProt Q6ZTQ4). Described as above.

No constants are given. Whether binding was seen depends on the method and setting.

Consider “rEC1 (CDHR3 residues 20–130) (from UniProt Q6ZTQ4 20-130) (domain or fragment)”, for which the binding result in experiment [1] is recorded as “no binding”.
“rEC1 W76A (CDHR3 residues 20–130, W76A) (from UniProt Q6ZTQ4 20-130) (domain or fragment)”: in experiment [2], the binding result is reported as “no binding”.
